Measurements taken from patent US3957788A (priority 1974, dated 1976).
Structures can show the parent of a compound that is named as a salt.

Experiment: in vivo
Conditions: mouse, iv

For `CN1CC[C@]23c4c5ccc(O)c4O[C@H]2[C@@H](O)C=C[C@H]3[C@H]1C5` [compound 4, Morphine hydrochloride], the selectivity ratio was 33.1.
